Results are given in words; binding and its absence hold for the method and conditions named. For part of these data: In cells and extracts the contact can be indirect. Some binding calls cover weakened binding; strength is not graded here. For part of these data: Where a sequence is shown, tags or fusion partners need not be part of it. Blank lines part the entries; values can stand above or below the molecule they belong to.
Tests used:
[1] = target: T1, endogenous CDKL5 of mouse brain (mouse (endogenous in brain)) (UniProt Q3UTQ8); test: co-IP; endogenous CDKL5 precipitated from P7 mouse brain extract (500 ug) with purified anti-CDKL5 overnight at 4 C, protein-G agarose; lysis buffer 50 mM Tris-HCl pH 7.5, 150 mM NaCl, 1% Triton X-100, 0.1% SDS; unrelated IgGs as control; blot for shootin1
T1 sequence: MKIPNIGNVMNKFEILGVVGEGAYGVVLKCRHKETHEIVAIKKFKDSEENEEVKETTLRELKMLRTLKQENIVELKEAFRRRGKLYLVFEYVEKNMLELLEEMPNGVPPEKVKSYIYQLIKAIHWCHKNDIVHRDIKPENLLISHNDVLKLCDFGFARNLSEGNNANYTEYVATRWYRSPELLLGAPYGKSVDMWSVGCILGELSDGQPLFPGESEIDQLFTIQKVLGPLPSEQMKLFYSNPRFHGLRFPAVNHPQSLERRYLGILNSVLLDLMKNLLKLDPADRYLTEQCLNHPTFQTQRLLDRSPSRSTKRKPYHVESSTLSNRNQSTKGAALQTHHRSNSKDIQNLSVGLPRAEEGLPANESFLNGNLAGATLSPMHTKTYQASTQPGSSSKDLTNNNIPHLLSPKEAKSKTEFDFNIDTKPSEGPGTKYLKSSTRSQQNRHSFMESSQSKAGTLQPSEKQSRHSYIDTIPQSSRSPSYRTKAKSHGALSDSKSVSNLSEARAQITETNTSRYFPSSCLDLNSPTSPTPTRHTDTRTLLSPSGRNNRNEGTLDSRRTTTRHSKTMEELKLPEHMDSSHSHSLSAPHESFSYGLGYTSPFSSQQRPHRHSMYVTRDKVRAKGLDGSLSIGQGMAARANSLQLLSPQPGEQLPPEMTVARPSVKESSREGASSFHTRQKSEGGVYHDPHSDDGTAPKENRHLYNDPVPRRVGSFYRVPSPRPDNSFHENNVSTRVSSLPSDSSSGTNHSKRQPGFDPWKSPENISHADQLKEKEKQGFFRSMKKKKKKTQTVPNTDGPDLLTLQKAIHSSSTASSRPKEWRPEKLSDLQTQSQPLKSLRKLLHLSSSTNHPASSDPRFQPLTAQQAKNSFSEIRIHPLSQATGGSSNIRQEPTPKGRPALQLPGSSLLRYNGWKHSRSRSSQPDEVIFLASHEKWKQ

Sequences of proteins named here, by UniProt entry; tags and fusion partners are left off. Residues count along the entry.
UniProt Q8K2Q9: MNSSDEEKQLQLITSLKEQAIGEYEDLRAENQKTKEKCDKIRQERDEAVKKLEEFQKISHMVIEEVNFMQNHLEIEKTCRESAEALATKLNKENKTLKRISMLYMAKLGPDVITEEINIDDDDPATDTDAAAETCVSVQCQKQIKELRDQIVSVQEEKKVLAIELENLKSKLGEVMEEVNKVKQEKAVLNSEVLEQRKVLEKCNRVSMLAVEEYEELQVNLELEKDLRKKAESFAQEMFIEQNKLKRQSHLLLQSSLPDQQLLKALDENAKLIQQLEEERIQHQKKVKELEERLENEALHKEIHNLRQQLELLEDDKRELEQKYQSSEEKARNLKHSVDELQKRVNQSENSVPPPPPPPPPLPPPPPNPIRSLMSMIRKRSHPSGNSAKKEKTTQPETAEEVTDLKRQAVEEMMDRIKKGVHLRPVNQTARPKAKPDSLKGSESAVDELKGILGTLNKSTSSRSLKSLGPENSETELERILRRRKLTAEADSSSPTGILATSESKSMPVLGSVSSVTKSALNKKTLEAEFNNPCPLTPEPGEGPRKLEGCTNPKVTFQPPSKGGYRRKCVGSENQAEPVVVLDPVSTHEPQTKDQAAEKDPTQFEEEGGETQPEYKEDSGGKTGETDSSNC
UniProt A0MZ66, residues 53-290: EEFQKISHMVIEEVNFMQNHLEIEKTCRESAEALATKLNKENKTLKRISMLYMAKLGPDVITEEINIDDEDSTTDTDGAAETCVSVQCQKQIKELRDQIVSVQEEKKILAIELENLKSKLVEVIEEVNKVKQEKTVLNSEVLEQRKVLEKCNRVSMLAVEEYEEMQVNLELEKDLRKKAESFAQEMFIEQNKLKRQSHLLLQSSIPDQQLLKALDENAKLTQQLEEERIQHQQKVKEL

[2] = target: T2, C-terminus of human CDKL5 (amino acids 299-1030) fused to the Gal4 DNA-binding domain (human) (UniProt O76039); test: two-hybrid; Gal4 DNA-binding domain bait (pB35) screened against a random-primed human adult brain cDNA library in pP6 by mating of Y187 and CG1945; His+ colonies selected on medium lacking tryptophan, leucine, methionine and histidine
T2 sequence: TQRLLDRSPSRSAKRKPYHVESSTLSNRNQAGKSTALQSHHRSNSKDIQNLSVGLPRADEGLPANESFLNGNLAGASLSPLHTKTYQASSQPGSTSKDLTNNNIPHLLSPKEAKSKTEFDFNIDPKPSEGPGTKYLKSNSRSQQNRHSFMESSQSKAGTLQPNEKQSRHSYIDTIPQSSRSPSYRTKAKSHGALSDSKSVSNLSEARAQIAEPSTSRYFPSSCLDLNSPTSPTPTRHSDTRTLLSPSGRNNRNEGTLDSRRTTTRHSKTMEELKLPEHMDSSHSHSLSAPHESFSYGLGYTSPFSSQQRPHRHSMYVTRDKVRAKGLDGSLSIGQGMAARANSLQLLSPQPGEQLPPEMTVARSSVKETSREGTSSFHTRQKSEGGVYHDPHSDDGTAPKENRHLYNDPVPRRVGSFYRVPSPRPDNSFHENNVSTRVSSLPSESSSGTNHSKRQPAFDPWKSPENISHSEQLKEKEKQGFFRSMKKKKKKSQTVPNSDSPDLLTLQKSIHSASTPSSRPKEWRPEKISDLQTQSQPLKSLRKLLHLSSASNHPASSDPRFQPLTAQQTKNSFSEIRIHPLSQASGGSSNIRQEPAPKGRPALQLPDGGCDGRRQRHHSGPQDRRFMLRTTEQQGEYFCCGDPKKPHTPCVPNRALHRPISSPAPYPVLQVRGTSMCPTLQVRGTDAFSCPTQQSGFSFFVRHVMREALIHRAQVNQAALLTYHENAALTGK

[3] = target: endogenous shootin1 of mouse brain (mouse (endogenous in brain)) (UniProt Q8K2Q9); test: co-IP; endogenous shootin1 precipitated from P5 mouse brain lysate (lysis buffer without SDS) with anti-shootin1 (Thermo Scientific), protein-G agarose saturated with 5% BSA; unrelated IgGs as control; blot for CDKL5

binding [1]: binds
Molecule: endogenous shootin1 of mouse brain (from UniProt Q8K2Q9 1-631)

binding [2]: binds
Molecule: shootin1 prey clones from a human adult brain cDNA library (from UniProt A0MZ66-2 53-290) (domain or fragment)

binding [3]: binds
B1: endogenous CDKL5 of mouse brain (protein, UniProt Q3UTQ8 1-938)
chain: T1 sequence
